Results as given in the supplement of paper PMC12819154, “High-throughput peptide-centric local stability assay extends protein–ligand identification to membrane proteins, tissues and bacteria” (Nature Structural & Molecular Biology, 2025).
The other results are listed elsewhere or left out. Small differences around the control level are noise.

The chains behind the UniProt entries cited, without tags or fusion partners. Where a name states a change or a piece, a line headed by the entry shows the natural chain unless it says otherwise.
UniProt P49902: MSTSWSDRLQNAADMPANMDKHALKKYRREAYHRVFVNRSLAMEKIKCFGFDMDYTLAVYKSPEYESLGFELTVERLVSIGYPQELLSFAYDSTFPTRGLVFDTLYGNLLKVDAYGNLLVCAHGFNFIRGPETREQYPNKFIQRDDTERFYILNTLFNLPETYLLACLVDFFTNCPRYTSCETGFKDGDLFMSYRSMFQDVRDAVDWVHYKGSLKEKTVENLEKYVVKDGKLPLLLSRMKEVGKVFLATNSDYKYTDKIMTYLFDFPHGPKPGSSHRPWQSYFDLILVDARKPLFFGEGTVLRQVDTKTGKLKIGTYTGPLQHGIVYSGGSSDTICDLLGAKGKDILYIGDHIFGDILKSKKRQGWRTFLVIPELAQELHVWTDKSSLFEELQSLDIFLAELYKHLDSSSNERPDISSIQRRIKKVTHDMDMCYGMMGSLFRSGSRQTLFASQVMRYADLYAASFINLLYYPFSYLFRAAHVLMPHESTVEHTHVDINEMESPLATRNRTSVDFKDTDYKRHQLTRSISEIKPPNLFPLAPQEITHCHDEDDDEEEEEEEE
UniProt P48444: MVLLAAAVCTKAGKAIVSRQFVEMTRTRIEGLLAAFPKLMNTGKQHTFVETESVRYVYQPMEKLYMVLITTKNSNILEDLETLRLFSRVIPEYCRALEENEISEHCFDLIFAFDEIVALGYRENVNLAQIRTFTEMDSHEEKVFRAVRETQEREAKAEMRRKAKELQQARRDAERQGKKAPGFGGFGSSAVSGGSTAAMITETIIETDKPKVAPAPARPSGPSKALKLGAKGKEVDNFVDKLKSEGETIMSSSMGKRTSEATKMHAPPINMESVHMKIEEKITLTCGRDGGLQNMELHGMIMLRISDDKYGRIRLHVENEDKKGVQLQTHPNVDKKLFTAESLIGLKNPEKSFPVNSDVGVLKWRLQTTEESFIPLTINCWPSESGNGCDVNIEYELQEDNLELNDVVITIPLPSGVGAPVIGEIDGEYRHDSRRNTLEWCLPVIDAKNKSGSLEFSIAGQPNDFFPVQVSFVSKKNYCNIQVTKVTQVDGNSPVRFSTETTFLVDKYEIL
UniProt P51149, whole entry: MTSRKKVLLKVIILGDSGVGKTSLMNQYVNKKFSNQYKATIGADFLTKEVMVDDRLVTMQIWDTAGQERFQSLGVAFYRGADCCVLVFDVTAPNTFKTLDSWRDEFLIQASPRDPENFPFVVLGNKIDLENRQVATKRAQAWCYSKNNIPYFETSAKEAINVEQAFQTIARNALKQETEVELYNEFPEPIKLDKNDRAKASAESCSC
UniProt P52746: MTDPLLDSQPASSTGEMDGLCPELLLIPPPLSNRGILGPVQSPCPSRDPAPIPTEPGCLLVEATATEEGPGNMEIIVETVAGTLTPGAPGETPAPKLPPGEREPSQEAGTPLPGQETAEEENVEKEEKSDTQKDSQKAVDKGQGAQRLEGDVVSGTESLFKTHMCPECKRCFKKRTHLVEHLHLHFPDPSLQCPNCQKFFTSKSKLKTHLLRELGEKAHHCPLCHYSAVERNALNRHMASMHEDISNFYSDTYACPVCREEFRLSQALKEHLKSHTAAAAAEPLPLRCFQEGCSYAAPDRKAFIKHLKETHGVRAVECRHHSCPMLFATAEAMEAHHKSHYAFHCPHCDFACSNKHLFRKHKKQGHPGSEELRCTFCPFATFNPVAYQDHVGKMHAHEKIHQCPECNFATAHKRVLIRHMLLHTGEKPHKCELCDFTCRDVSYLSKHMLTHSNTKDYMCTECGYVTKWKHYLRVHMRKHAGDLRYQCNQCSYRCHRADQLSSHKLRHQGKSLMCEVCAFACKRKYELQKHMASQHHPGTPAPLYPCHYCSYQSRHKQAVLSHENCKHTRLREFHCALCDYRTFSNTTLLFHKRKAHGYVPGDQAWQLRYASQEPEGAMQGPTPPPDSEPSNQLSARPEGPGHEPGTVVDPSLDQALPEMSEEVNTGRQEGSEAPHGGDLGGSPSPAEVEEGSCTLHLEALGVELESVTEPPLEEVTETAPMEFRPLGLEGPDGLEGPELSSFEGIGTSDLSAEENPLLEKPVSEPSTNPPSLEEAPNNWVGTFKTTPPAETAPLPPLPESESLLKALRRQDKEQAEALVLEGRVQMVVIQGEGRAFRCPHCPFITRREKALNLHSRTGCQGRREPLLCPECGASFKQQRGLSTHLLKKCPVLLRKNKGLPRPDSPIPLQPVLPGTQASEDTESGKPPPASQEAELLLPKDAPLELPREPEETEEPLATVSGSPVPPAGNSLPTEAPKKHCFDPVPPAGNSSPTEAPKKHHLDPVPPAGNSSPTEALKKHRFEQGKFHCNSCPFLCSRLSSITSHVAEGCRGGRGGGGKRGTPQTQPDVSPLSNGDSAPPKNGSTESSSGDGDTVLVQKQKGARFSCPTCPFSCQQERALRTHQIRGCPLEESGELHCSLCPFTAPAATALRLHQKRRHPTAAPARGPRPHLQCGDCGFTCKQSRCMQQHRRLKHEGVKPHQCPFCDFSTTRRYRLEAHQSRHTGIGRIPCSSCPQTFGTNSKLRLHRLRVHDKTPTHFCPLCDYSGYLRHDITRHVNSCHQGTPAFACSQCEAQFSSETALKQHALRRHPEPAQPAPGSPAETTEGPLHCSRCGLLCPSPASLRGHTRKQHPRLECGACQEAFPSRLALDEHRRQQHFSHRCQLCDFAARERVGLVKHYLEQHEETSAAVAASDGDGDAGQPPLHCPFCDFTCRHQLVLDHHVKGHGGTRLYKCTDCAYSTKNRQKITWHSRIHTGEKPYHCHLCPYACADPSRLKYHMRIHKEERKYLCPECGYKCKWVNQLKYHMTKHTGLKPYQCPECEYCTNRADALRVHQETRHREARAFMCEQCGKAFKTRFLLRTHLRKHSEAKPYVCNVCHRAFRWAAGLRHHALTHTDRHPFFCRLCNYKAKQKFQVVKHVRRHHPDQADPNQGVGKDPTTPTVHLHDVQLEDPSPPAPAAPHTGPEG
UniProt P52756, whole entry: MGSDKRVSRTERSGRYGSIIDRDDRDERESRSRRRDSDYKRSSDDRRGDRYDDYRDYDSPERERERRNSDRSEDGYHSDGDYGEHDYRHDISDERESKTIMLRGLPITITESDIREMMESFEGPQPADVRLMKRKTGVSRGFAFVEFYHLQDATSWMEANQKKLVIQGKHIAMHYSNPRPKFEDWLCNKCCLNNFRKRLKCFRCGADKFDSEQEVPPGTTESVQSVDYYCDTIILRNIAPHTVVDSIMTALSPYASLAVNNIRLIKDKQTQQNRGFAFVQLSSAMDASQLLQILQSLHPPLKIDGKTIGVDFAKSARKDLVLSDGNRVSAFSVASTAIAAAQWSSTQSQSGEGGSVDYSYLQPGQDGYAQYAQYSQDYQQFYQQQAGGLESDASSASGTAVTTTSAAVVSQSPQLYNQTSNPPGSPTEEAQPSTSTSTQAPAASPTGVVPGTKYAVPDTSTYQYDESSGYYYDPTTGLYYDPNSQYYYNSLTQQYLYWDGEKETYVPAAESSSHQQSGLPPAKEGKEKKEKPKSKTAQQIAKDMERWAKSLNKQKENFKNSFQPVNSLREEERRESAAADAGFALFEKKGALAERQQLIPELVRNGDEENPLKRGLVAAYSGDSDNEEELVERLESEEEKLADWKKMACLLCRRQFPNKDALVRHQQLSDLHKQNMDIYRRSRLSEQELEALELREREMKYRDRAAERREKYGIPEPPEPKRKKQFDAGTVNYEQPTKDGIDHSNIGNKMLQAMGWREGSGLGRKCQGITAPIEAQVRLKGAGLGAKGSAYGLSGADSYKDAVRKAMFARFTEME
UniProt P50502: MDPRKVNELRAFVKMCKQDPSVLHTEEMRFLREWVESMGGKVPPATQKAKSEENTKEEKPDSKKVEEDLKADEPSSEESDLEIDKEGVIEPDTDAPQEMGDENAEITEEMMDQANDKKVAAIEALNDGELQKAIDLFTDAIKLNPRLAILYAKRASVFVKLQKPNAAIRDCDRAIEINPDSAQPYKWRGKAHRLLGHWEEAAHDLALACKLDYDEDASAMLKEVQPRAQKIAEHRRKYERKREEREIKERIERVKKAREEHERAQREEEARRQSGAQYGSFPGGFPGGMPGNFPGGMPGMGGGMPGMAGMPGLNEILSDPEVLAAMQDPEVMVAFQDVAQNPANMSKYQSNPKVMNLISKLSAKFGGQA
UniProt P49842: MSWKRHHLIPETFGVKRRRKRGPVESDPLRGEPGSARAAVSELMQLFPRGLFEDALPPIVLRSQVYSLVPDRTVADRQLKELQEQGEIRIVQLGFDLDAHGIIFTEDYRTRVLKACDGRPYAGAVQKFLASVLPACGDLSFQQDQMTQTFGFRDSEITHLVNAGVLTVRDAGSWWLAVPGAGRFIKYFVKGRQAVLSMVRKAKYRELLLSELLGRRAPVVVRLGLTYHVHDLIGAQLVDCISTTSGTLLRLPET

These targets were tested with CN[C@@H]1C[C@H]2O[C@@](C)([C@@H]1OC)n1c3ccccc3c3c4c(c5c6ccccc6n2c5c31)C(=O)NC4 [staurosporine] (assay: log2 fold change of tryptic peptide abundance, ligand vs vehicle (limited proteolysis) (log2 ratio); higher = more trypsin-susceptible (destabilized)). Details: ligand concentration: 20 uM; sample: K562 cleared lysate; digestion: 4 min, 22 C (HT-PELSA RT4min, Orbitrap Astral).
“NT5C2 (peptide sequence: HLDSSSNERPDISSIQR, peptide start residue: 405) (UniProt P49902)” gave a log2 fold change of 0.282. “ARCN1 (peptide sequence: MHAPPINMESVHMK, peptide start residue: 264) (UniProt P48444)” showed a log2 fold change of 0.849. For “UniProt P51149 (peptide sequence: TSLMNQYVNKK, peptide start residue: 22)”, the log2 fold change was 0.361. “UniProt P52746 (peptide sequence: LSSITSHVAEGCR, peptide start residue: 1038)” showed a log2 fold change of 0.337. Work on “RBM5 (peptide sequence: HDISDER, peptide start residue: 89) (UniProt P52756)” yielded a log2 fold change of -0.319. For “ST13 (peptide sequence: FLREWVESMGGKVPPATQK, peptide start residue: 30) (UniProt P50502)”, the log2 fold change was 0.354. With “STK19 (peptide sequence: DSEITHLVNAGVLTVR, peptide start residue: 268) (UniProt P49842)” the log2 fold change was 0.291. In the case of “CAPZA1 (peptide sequence: FITHAPPGEFNEVFNDVR, peptide start residue: 20) (UniProt P52907)”, the log2 fold change is reported as -0.641.
